Reference: paper PMC8591507, “Progesterone receptor membrane component 1 (PGRMC1) binds and stabilizes cytochromes P450 through a heme-independent mechanism” (The Journal of Biological Chemistry, 2021)
Read-outs that look alike come from different tables or passages of the source. No constants are given. Whether binding was seen depends on the method and setting. In cells and extracts the contact can be indirect. These calls come from enrichment with a bait or labelling near it, and not all partners need be listed.

Amino acid sequences for entries named in this document (tags omitted). A change or cut given only in a name is not applied to a line headed by its entry.
UniProt O55022: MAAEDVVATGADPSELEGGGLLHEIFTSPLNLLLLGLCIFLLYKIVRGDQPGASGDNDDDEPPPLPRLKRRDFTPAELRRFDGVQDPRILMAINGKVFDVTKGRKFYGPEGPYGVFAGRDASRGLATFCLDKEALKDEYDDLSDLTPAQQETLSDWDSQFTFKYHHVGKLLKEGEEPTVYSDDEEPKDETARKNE
UniProt Q64458: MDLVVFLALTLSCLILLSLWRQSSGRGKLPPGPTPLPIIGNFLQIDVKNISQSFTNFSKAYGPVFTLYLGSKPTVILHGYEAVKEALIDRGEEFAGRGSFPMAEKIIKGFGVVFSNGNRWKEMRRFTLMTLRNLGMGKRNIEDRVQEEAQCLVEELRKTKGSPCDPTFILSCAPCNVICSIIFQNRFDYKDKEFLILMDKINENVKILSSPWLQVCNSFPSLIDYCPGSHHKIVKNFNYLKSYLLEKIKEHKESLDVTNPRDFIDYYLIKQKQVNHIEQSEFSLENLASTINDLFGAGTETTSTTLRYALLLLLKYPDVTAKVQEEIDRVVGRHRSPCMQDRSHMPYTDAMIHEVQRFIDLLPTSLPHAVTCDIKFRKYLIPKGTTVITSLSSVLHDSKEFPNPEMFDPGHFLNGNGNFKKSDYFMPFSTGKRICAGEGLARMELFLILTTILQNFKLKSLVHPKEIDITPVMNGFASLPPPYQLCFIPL
UniProt Q05421: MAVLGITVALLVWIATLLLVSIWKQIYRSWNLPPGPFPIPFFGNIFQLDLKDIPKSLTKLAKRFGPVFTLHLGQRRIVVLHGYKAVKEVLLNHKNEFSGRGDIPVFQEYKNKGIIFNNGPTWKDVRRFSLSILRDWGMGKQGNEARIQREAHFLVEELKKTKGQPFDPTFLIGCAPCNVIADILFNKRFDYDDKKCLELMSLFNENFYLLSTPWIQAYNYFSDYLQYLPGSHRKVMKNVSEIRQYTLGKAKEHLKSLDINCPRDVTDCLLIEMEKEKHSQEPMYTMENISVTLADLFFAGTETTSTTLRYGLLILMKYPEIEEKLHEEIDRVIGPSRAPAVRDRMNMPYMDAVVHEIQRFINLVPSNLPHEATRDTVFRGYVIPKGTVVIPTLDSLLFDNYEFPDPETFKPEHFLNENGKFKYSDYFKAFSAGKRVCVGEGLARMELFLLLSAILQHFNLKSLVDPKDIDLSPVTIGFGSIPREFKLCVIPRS

Key:
Assay in all cases: affinity purification with mass spectrometry; Flag-M2 agarose on DDM-solubilized liver membrane fractions of Pgrmc1 KO mice infected with AAV8 GFP, Flag-Pgrmc1 or Y113F Flag-Pgrmc1; 1 h at 4 °C; eluates TMT-labelled; candidates have a fold change ≥20% against the GFP control
[1] = biological target: Flag-Pgrmc1 (murine progesterone receptor membrane component 1) (mouse) (UniProt O55022)
[2] = biological target: Y113F Flag-Pgrmc1 (murine) (mouse) (UniProt O55022)
[3] = biological target: Flag-Pgrmc1 (murine progesterone receptor membrane component 1) (mouse) (UniProt O55022); remark: listed apart in the source
[4] = biological target: Y113F Flag-Pgrmc1 (murine) (mouse) (UniProt O55022); remark: listed apart in the source

Cyp2c29 (from UniProt Q64458) (enzyme) was tested, and the binding [1] was “binds” and the binding [2] was “binds”.

In the case of “Cyp2e1 (from UniProt Q05421 1-493) (enzyme)”, the binding [1] is reported as “binds” and the binding [2] is reported as “binds”.

B1: Cyp3a11 (enzyme, UniProt Q64459 1-504)
chain: MDLVSALSLETWVLLAISLVLLYRYGTRKHELFKKQGIPGPKPLPFLGTVLNYYKGLWKFDMECYKKYGKTWGLFDGQTPLLAVTDPETIKNVLVKECFSVFTNRRDFGPVGIMSKAISISKDDEWKRYRALLSPTFTSGKLKEMFPVIEQYGDILVKYLRQKAKKGKPVTMKDVLGAYSMDVITSTSFGVNVDSLNNPEDPFVEKAKKLLRFDFFDPLLFSVVLFPFLTPVYEMLNICMFPKDSIEFFKKFVDRMKESRLDSKQKHRVDFLQLMMNSHNNSKDKVSHKALSDMEITAQSIIFIFAGYETTSSTLSFTLHSLATHPDIQKKLQDEIDEALPNKAPPTYDTVMEMEYLDMVLNETLRLYPIANRLERVCKKDVELNGVYIPKGSTVMIPSYALHHDPQHWSEPEEFQPERFSKENKGSIDPYVYLPFGNGPRNCLGMRFALMNMKLALTKIMQNFSFQPCKETQIPLKLSRQGLLQPEKPIVLKVVPRDAVITGA
With B1 the binding [3] was “binds” and the binding [4] was “binds”.

B2: Cyp7b1 (enzyme, UniProt Q60991 1-507)
chain: MQGATTLDAASPGPLALLGLLFAATLLLSALFLLTRRTRRPREPPLIKGWLPYLGMALKFFKDPLTFLKTLQRQHGDTFTVFLVGKYITFVLNPFQYQYVTKNPKQLSFQKFSSRLSAKAFSVKKLLTDDDLNEDVHRAYLLLQGKPLDALLETMIQEVKELFESQLLKITDWNTERIFAFCGSLVFEITFATLYGKILAGNKKQIISELRDDFFKFDDMFPYLVSDIPIQLLRNEESMQKKIIKCLTSEKVAQMQGQSKIVQERQDLLKRYYRHDDPEIGAHHLGFLWASLANTIPAMFWAMYYILRHPEAMEALRDEIDSFLQSTGQKKGPGISVHFTREQLDSLVCLESTILEVLRLCSYSSIIREVQEDMNLSLESKSFSLRKGDFVALFPPLIHNDPEIFDAPKEFRFDRFIEDGKKKSTFFKGGKKLKTYVMPFGLGTSKCPGRYFAVNEMKLLLIMLLTYFDLEIIDRKPIGLNHSRMFLGIQHPDSAVSFRYKAKSWRS
B2 was tested, and the binding [3] was “binds”.

B3: Cyp3a13 (enzyme, UniProt Q64464 1-503)
chain: MDLIPNFSMETWMLLATSLVLLYLYGTHSHGIFKKLGIPGPKPLPFLGTILAYQKGFWECDIQCHKKYGKMWGLYDGRQPVLAITDPDIIKTVLVKECYSTFTNRRRFGPVGILKKAISISENEEWKRIRALLSPTFTSGRLKEMFPIINQFTDVLVRNMRQGLGEGKPTSMKDIFGAYSMDVITATSFGVNIDSLNNPQDPFVEKIKKLLKFDIFDPLFLSVTLFPFLTPVFDALNVSLFPRDVISFFTTSVERMKENRMKEKEKQRVDFLQLMINSQNYKTKESHKALSDVEIVAQSVIFIFAGYETTSSALSFALYLLAIHPDVQKKLQDEIDAALPNKAPATYDTLLQMEYLDMVVNETLRLYPIAGRLERVCKTDVEINGLFIPKGTVVMIPTFALHKDPKYWPEPEEFRPERFSKKNQDSINPYMYLPFGSGPRNCIGMRFALINMKVALVRVLQNFTVQPCKETEIPLKLSKQGLLQPENPLLLKVVSRDETVSDE
With B3 the binding [3] was “binds”.

B4: PGRMC2 (progesterone receptor membrane component 2) (protein, UniProt Q80UU9 1-217)
chain: MAAGDGDVKLSTLGSGGESGGDGSPGGAGATAARSSWVAALLATGGEMLLNVALVALVLLGAYRLWVRWGRRGLCSGPGAGEESPAATLPRMKKRDFSLEQLRQYDGARTPRILLAVNGKVFDVTKGSKFYGPAGPYGIFAGRDASRGLATFCLDKDALRDEYDDLSDLNAVQMESVREWEMQFKEKYDYVGRLLKPGEEPSEYTDEEDTKDHSKQD
For B4, the binding [3] was “binds”.

B5: BAP31 (protein, UniProt Q61335 1-245)
chain: MSLQWTTVATFLYAEVFAVLLLCIPFISPKRWQKVFKSRLVELVVTYGNTFFVVLIVILVLLVIDAVREILKYDDVTEKVNLQNNPGAMEHFHMKLFRAQRNLYIAGFSLLLSFLLRRLVTLISQQATLLASNEAFKKQAESASEAAKKYMEENDQLKKGAAEDGDKLDIGNTEMKLEENKSLKNDLRKLKDELASTKKKLEKAENEALAMQKQSEGLTKEYDRLLEEHAKLQASVRGPSVKKEE
With B5 the binding [3] was “binds”.

B6: ferrochelatase (Fech) (enzyme, UniProt P22315 54-422)
chain: TTKPQAQPERRKPKTGILMLNMGGPETLGEVQDFLQRLFLDRDLMTLPIQNKLAPFIAKRRTPKIQEQYRRIGGGSPIKMWTSKQGEGMVKLLDELSPATAPHKYYIGFRYVHPLTEEAIEEMERDGLERAIAFTQYPQYSCSTTGSSLNAIYRYYNEVGQKPTMKWSTIDRWPTHPLLIQCFADHILKELNHFPEEKRSEVVILFSAHSLPMSVVNRGDPYPQEVGATVHKVMEKLGYPNPYRLVWQSKVGPVPWLGPQTDEAIKGLCERGRKNILLVPIAFTSDHIETLYELDIEYSQVLAQKCGAENIRRAESLNGNPLFSKALADLVHSHIQSNKLCSTQLSLNCPLCVNPVCRKTKSFFTSQQL
With B6 the binding [3] was “binds”.

B7: lathosterol oxidase (enzyme, UniProt O88822 1-299)
chain: MDLVLSAADYYFFTPYVYPATWPEDNIIRQTISLLIVTNLGAYILYFFCATLSYYFVYDHSLMKHPQFLKNQVSREIVFTVKSLPWISIPTVSLFLLELRGYSKLYDDIGDFPNGWIHLMVSVVSFLFFTDMLIYWIHRGLHHRLVYKRIHKPHHIWKIPTPFASHAFHPVDGFLQSLPYHIYPFVFPLHKVVYLGLYVLVNVWTISIHDGDFRVPQILRPFINGSAHHTDHHMFFDYNYGQYFTLWDRIGGSFKHPSSFEGKGPHSYVKNMTEKESNSFAENGCKGKKVGNGEFTKNK
For B7, the binding [3] was “binds”.

B8: Cyp1a2 (enzyme, UniProt P00186 1-513)
chain: MAFSQYISLAPELLLATAIFCLVFWMVRASRTQVPKGLKNPPGPWGLPFIGHMLTVGKNPHLSLTRLSQQYGDVLQIRIGSTPVVVLSGLNTIKQALVRQGDDFKGRPDLYSFTLITNGKSMTFNPDSGPVWAARRRLAQDALKSFSIASDPTSASSCYLEEHVSKEANHLVSKLQKAMAEVGHFEPVSQVVESVANVIGAMCFGKNFPRKSEEMLNIVNNSKDFVENVTSGNAVDFFPVLRYLPNPALKRFKTFNDNFVLFLQKTVQEHYQDFNKNSIQDITSALFKHSENYKDNGGLIPEEKIVNIVNDIFGAGFDTVTTAITWSILLLVTWPNVQRKIHEELDTVVGRDRQPRLSDRPQLPYLEAFILEIYRYTSFVPFTIPHSTTRDTSLNGFHIPKERCIYINQWQVNHDEKQWKDPFVFRPERFLTNNNSAIDKTQSEKVMLFGLGKRRCIGEIPAKWEVFLFLAILLQHLEFSVPPGVKVDLTPNYGLTMKPGTCEHVQAWPRFSK
In the case of B8, the binding [3] is reported as “binds” and the binding [4] is reported as “binds”.

B9: Cyp2f2 (enzyme, UniProt P33267 1-491)
chain: MDGVSTAILLLLLAVISLSLTFSSRGKGQLPPGPKPLPILGNLLQLRSQDLLTSLTKLSKEYGSVFTVYLGSRPVIVLSGYQTVKEALVDKGEEFSGRGAYPVFFNFTRGNGIAFSDGERWKILRRFSVQILRNFGMGKRSIEERILEEGSFLLEVLRKMEGKPFDPVFILSRSVSNIICSVVFGSRFDYDDERLLTIIHFINDNFKIMSSPWGEMYNIFPSVLDWIPGPHKRLFRNFGGMKDLIARSVREHQDSLDPNSPRDFIDCFLTKMAQEKQDPLSHFNMDTLLMTTHNLLFGGTETVGTTLRHAFLILMKYPKVQARVQEEIDRVVGRSRMPTLEDRTSMPYTDAVIHEVQRFADVIPMNLPHRVTRDTPFRGFLIPKGTDVITLLNTVHYDSDQFKTPQEFNPEHFLDDNHSFKKSPAFMPFSAGRRLCLGEPLARMELFIYFTSILQNFTLQPLVDPEDIDLTPLSSGLGNLPRPFQLCMHIR
In the case of B9, the binding [3] is reported as “binds” and the binding [4] is reported as “binds”.

B10: Cyp51a (enzyme, UniProt Q8K0C4 1-503)
chain: MVLLGLLQSGGWVLGQAMEQVTGGNLLSTLLIACAFTLSLVYLFRLAVGHMVQLPAGAKSPPHIYSPIPFLGHAIAFGKSPIEFLENAYEKYGPVFSFTMVGKTFTYLLGSDAAALLFNSKNEDLNAEEVYGRLTTPVFGKGVAYDVPNAIFLEQKKIIKSGLNIAHFKQYVPIIEKEAKEYFQSWGESGERNVFEALSELIILTASHCLHGKEIRSQLNEKVAQLYADLDGGFTHAAWLLPAWLPLPSFRRRDRAHREIKNIFYKAIQKRRLSKEPAEDILQTLLDSTYKDGRPLTDEEISGMLIGLLLAGQHTSSTTSAWMGFFLAKDKPLQEKCYLEQKAVCGEDLPPLTYDQLKDLNLLDRCIKETLRLRPPIMTMMRMAKTPQTVAGYTIPPGHQVCVSPTVNQRLKDSWAERLDFNPDRYLQDNPASGEKFAYVPFGAGRHRCVGENFAYVQIKTIWSTMLRLYEFDLINGYFPTVNYTTMIHTPENPVIRYKRRSK
For B10, the binding [3] was “binds” and the binding [4] was “binds”.

B11: Cyp2j5 (enzyme, UniProt O54749 1-501)
chain: MIMFLSSLVTTFWEALHLKTLVLAVVTFLFLINILRSRHPKNYPPGPWRLPFVGNFFQIDTKQTHLVLQQFVKKYGNVFSLELGQSPVVVVSGLPLIKEMFTHLDQNFVNRFMTPVRERITGKNGLVVSNGQTWKEQRRLALMALRNFGLGKKSLEERIQEETHHLVEAIREEGGQPFNPHLKLINAVSNIICSVTFGERFDYEDCQFQELLQLLDETMHLMGSSAGQLYNGFPCIMKYLPGPHQKIFRNWGKLKLFVSHIVKKHEKDWNPDEPRDFIDAFLIEMQKDPDRTTSFNEENLISTTLDLFLGGTETTSSTLRWALLYMSSYPEIQENVQAEIDRVIGHKRQVSLSDRESMPYTNAVIHEVQRMGNIVPLNSSREVTVDTKFNGFHLPKGTMILTNLTALHRDPKEWATPEVFNPEHFLENGQFKKRESFLPFSMGKRACLGEQLAKSELFIFFSALMQKFTFKPPINEKLSLKFRMGLILSPASYRICAIPRV
B11 was tested, and the binding [3] was “binds” and the binding [4] was “binds”.
